According to paper doi:10.1101/2021.04.10.439283:
No constants are given. Whether binding was seen depends on the method and setting. Some binding calls cover weakened binding; strength is not graded here. Tags and fused reporters may be left off the sequences shown.

How the values were obtained:
Test in all cases: two-hybrid
[1] = molecular target: T1, Dna2-Nuclease domain (451-900 aa) fused to lexA-DBD (S. cerevisiae) (UniProt P38859)
T1 sequence: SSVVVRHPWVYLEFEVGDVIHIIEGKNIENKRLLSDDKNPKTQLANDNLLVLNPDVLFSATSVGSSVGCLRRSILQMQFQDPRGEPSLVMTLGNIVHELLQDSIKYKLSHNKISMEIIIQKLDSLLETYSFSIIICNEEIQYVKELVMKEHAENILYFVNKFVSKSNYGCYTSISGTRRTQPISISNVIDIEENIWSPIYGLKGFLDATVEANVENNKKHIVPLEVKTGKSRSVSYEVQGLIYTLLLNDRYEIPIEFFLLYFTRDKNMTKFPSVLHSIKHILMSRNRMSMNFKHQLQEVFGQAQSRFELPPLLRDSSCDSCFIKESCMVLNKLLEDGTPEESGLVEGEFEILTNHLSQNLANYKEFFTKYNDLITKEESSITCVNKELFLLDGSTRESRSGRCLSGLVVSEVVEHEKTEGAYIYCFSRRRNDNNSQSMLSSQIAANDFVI

[2] = molecular target: T2, Nej1 fused to lexA-DBD (S. cerevisiae) (UniProt Q06148)
T2 sequence: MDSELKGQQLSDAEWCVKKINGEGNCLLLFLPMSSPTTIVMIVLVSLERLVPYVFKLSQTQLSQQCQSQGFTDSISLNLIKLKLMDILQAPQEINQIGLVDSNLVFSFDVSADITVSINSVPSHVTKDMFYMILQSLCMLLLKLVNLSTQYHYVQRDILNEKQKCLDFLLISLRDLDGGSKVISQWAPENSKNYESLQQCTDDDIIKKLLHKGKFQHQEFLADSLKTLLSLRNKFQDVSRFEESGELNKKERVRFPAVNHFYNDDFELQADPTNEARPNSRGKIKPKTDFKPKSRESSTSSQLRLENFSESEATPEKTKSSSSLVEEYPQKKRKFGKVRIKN

[3] = molecular target: T3, Rad50 fused to lexA-DBD (S. cerevisiae) (UniProt P12753)
T3 sequence: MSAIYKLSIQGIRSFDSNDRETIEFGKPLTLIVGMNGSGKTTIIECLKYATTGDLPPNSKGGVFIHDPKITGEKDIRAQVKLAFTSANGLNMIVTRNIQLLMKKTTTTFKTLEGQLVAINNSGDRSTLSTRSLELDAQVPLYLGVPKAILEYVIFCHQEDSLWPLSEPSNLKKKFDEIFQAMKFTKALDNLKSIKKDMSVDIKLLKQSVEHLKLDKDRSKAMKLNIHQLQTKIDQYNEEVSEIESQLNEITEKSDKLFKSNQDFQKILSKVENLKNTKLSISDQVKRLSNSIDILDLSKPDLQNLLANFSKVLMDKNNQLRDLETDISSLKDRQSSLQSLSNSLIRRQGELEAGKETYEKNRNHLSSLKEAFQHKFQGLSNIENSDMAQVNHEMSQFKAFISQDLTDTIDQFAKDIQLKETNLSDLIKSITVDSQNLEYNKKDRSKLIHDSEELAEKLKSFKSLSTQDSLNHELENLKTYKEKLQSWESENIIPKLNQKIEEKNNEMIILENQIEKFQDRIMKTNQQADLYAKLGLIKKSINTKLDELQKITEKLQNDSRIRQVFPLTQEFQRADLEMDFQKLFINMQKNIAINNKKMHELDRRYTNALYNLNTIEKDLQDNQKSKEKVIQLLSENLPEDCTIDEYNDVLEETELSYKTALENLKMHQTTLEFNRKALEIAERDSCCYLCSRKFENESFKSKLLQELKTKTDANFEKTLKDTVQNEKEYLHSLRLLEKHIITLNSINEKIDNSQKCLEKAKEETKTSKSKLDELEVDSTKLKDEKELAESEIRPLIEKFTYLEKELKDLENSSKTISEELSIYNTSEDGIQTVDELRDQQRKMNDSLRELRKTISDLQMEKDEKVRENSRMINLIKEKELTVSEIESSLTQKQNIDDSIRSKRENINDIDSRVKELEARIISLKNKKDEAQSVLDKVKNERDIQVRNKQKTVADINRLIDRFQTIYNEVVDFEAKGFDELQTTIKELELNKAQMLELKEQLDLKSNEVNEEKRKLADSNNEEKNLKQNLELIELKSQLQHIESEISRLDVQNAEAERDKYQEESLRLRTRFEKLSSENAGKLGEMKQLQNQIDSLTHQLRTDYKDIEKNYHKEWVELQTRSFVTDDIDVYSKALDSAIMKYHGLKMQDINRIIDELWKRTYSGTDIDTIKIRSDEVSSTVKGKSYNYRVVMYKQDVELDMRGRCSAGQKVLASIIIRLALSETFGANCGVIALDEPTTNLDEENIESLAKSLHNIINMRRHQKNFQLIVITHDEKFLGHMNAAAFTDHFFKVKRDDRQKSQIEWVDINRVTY

Measured: binding

B1: Sae2 fused to HA-AD (protein, UniProt P46946 1-345)
chain: MVTGEENVYLKSSLSILKELSLDELLNVQYDVTTLIAKRVQALQNRNKCVLEEPNSKLAEILCHEKNAPQQSSQTSAGPGEQDSEDFILTQFDEDIKKESAEVHYRNENKHTVQLPLVTMPPNRHKRKISEFSSPLNGLNNLSDLEDCSDTVIHEKDNDKENKTRKLLGIELENPESTSPNLYKNVKDNFLFDFNTNPLTKRAWILEDFRPNEDIAPVKRGRRKLERFYAQVGKPEDSKHRSLSVVIESQNSDYEFAFDNLRNRSKSPPGFGRLDFPSTQEGNEDKKKSQEIIRRKTKYRFLMASNNKIPPYEREYVFKREQLNQIVDDGCFFWSDKLLQIYARC
binds: all assays above
